A short description of this data set: RP, Agilent ZORBAX Eclipse Plus C18, 150 × 2.1 mm, 3.5 µm, 40 °C, 0.3 mL/min, estimated dead time 1.1 min; A: water + 0.1% formic acid; B: acetonitrile + 0.1% formic acid; gradient (min/%B) 0/2 1/2 2/20 16.5/98 22/98. The settings on record: stereoisomer not certain.

LC retention time data for one molecule are collected here from the RepoRT retention time repository (doi:10.1016/j.chroma.2015.11.014).

Turning to `O=C(c1ccccc1)c1ccccc1`, the LC retention time is 12.6 min.
